No constants are given. Whether binding was seen depends on the method and setting. In cells and extracts the contact can be indirect. These calls come from enrichment with a bait or labelling near it, and not all partners need be listed.

Sequences of proteins named here, by UniProt entry; tags and fusion partners are left off. Residues count along the entry.
UniProt O00206, residues 24-839: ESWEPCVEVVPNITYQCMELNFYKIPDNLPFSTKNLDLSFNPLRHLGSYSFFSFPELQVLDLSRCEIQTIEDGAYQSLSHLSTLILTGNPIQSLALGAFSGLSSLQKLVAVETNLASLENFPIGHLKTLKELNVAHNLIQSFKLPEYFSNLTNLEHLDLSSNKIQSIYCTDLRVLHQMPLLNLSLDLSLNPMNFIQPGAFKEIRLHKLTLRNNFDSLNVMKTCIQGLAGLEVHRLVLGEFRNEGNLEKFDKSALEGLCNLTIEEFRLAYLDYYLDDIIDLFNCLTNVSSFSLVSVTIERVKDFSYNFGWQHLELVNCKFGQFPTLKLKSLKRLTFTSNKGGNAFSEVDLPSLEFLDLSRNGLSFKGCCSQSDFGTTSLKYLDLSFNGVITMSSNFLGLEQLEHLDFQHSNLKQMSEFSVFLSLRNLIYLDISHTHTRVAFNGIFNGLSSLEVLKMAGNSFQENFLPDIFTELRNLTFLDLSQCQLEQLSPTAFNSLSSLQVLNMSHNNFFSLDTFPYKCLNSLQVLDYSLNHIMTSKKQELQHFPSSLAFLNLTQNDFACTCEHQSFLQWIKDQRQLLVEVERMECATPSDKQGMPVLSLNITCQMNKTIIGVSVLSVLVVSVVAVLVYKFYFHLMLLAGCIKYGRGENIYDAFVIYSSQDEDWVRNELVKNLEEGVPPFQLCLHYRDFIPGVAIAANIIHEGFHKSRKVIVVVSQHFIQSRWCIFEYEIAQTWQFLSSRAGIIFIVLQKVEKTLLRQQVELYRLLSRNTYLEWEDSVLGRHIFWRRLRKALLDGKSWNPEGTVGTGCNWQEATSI
UniProt Q92793: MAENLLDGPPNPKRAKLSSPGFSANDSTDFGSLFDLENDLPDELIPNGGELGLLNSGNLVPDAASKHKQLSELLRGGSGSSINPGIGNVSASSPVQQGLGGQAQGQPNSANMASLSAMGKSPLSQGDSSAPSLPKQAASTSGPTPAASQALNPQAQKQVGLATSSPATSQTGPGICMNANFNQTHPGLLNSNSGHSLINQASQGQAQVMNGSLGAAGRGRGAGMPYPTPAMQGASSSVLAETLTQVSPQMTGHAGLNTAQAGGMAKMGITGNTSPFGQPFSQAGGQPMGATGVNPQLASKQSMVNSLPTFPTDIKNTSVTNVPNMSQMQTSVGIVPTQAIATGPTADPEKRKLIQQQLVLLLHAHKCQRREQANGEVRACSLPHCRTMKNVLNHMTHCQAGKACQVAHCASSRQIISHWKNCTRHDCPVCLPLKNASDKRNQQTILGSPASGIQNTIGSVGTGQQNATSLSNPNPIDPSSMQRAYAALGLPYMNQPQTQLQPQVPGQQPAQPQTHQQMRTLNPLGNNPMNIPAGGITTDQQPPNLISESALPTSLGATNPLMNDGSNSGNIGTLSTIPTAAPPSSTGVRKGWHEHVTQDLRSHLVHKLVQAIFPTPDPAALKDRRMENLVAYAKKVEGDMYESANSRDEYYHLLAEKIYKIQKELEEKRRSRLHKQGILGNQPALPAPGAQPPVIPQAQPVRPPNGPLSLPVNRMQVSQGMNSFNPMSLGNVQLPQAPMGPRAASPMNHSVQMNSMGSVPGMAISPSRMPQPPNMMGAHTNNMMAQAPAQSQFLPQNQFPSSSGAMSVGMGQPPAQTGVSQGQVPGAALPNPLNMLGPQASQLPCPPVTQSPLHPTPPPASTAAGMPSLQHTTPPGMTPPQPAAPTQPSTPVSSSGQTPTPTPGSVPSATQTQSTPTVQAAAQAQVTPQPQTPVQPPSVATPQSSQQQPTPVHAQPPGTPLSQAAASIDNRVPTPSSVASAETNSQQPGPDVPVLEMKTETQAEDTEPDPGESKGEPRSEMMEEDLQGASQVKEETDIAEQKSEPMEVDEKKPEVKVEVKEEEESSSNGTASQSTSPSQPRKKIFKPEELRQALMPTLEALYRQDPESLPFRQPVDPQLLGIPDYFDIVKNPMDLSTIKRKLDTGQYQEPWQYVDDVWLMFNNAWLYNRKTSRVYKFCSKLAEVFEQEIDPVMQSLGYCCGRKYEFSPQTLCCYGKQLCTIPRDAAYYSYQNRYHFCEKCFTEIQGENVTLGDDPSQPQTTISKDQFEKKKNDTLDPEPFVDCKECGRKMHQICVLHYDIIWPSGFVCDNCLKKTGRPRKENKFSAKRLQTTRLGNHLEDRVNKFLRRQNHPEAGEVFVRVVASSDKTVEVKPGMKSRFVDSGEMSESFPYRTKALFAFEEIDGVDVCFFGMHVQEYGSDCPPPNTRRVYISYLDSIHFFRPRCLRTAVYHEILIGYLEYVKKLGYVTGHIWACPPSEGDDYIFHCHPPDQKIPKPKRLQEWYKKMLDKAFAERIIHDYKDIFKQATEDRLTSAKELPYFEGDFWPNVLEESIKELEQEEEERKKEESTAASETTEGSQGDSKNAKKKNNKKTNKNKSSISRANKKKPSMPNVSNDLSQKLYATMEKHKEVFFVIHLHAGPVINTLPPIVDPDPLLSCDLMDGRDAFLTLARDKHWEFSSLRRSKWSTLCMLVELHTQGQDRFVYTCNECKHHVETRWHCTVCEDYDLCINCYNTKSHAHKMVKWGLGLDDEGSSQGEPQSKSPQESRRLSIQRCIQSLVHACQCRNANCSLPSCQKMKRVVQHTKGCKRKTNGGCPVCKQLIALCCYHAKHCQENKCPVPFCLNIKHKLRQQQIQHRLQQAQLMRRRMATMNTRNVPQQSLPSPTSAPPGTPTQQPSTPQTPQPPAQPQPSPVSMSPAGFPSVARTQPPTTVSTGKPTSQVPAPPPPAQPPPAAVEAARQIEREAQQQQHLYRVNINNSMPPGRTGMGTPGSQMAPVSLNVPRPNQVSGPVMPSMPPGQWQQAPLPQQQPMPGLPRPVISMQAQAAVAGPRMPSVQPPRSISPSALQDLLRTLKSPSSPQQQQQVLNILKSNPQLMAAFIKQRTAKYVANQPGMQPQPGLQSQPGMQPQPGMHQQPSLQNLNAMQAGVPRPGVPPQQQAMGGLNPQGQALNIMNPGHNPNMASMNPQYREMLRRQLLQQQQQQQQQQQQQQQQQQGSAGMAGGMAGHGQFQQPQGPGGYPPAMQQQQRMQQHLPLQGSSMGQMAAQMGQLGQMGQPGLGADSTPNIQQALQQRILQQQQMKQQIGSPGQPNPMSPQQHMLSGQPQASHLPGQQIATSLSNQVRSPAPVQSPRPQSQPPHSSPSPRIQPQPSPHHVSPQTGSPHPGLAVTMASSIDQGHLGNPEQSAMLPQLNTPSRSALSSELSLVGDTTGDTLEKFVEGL

The target of the test is Toll-like receptor 4 (TLR4), endogenous in THP-1-derived macrophages (human (endogenous in THP-1)) (UniProt O00206). The experiment in a line: affinity purification with mass spectrometry; THP-1 cells induced into macrophages with 100 ng/ml PMA, 100 ng/mL LPS for 30 min; immunoprecipitation with a TLR4 antibody, mass spectrometry of TLR4-associated proteins.

With “CREB-binding protein (CBP), endogenous in THP-1-derived macrophages (from UniProt Q92793 1-2442) (enzyme)”, the binding result is “binds”.

Source of the values: article PMC11535217.
